Measurements published in paper PMC13036090.
These are yes or no findings as the source states them, for the method shown. In cells and extracts the contact can be indirect. Some binding calls cover weakened binding; strength is not graded here. Sequences can lack the tags named with a protein. One block for each molecule: values may come before it.

Amino acid sequences for entries named in this document (tags omitted).
UniProt P42224: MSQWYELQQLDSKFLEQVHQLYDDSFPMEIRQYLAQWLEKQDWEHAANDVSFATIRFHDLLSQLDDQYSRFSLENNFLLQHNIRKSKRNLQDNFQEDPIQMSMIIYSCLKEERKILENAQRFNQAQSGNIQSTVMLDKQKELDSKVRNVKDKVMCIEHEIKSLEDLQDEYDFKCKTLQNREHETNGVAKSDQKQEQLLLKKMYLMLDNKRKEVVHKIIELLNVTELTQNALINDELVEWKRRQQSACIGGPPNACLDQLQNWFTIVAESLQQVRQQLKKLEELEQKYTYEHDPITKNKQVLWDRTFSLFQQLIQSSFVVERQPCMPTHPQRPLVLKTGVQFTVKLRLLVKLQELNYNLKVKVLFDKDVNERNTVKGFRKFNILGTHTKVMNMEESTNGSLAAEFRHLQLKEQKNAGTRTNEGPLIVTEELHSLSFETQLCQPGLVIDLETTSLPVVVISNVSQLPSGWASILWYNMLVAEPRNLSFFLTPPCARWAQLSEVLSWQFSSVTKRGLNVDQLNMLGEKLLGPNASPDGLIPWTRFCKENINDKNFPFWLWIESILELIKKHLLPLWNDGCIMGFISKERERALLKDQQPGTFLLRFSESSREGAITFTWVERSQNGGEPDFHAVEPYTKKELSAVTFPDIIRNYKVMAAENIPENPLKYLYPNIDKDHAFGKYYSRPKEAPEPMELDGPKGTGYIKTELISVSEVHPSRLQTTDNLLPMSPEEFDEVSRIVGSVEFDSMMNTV
UniProt Q14974: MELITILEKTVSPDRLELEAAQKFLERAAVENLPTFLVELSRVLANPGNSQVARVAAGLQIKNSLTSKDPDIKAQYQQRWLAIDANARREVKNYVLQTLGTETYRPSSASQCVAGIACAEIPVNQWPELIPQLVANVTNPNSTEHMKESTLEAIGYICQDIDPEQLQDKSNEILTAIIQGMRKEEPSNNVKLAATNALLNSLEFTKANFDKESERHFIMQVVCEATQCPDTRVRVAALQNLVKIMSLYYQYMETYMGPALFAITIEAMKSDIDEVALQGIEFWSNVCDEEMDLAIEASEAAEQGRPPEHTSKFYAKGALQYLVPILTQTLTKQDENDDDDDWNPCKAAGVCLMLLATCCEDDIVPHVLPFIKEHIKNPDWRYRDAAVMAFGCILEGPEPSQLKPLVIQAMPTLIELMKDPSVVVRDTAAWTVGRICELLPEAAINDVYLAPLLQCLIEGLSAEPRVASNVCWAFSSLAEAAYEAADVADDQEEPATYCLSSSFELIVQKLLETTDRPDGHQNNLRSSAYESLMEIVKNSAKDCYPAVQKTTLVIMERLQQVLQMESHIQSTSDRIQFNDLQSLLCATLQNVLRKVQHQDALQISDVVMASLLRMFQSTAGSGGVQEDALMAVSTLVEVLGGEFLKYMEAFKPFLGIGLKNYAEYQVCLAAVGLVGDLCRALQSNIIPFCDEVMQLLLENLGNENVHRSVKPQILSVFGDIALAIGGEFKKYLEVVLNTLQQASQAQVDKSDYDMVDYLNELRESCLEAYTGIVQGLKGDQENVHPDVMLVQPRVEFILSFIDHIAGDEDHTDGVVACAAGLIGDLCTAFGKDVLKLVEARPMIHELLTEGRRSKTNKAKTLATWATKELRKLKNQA
UniProt Q15717: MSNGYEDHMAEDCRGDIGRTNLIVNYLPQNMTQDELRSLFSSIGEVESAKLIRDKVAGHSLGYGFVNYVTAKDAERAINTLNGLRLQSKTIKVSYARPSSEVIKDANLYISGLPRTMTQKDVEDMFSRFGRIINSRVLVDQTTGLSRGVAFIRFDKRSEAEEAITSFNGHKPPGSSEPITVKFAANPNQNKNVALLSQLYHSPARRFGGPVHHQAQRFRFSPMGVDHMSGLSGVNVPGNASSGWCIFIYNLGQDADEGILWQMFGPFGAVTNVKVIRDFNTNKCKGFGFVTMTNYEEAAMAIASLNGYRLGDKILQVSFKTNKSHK

Experiments:
[1] = target: T1, HA-tagged UGDH, wild type (human) (UniProt O60701); experiment: co-IP; Fig. 7D-H; tagged proteins co-expressed in HEK293T; Co-IP buffer 0.4% NP-40, 150 mM NaCl, 50 mM Hepes, pH 7.8; anti-Flag/anti-HA magnetic agarose beads, 4 °C overnight; Western blotting; also with TMG or OSMI-4 treatment of the cells
T1 sequence (chain, O-GlcNAc on Ser350 (major site) on part of the protein): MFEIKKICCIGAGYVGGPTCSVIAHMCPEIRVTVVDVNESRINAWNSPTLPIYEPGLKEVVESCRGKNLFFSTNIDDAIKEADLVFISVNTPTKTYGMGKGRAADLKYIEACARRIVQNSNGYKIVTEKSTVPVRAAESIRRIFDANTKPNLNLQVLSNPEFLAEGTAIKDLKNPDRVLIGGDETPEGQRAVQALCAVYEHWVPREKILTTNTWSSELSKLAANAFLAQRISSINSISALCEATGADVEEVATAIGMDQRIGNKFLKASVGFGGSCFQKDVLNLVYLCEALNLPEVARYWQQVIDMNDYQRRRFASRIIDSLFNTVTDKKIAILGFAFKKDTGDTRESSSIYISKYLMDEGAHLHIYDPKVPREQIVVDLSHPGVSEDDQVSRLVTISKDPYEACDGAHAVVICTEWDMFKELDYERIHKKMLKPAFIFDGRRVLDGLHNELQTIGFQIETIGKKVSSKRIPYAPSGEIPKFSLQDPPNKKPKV

[2] = target: T2, UGDH (uridine diphosphate glucose dehydrogenase), wild type, construct not stated for these experiments (human) (UniProt O60701); experiment: co-IP; Fig. S8A; HuR and UGDH under modulation of O-GlcNAcylation; constructs and cells not told
T2 sequence (chain, O-GlcNAc on Ser350 (major site) on part of the protein): T1 sequence (chain, O-GlcNAc on Ser350 (major site) on part of the protein)

[3] = target: T2, UGDH (uridine diphosphate glucose dehydrogenase), wild type, construct not stated for these experiments (human); experiment: co-IP; Fig. 1H, I; cells, tags and bait not told; Co-IP buffer 0.4% NP-40, 150 mM NaCl, 50 mM Hepes, pH 7.8; anti-Flag/anti-HA magnetic agarose beads, 4 °C overnight; Western blotting

binding [1]: binds weakly
Molecule: Flag-tagged STAT1 (from UniProt P42224 1-750)

binding [1]: binds
Molecule: His-tagged KPNB1 (from UniProt Q14974 1-876)

binding [2]: binds
Molecule: HuR (from UniProt Q15717 1-326)

binding [3]: binds
B1: O-GlcNAc transferase (OGT) (enzyme, UniProt O15294 1-1046)
chain: MASSVGNVADSTEPTKRMLSFQGLAELAHREYQAGDFEAAERHCMQLWRQEPDNTGVLLLLSSIHFQCRRLDRSAHFSTLAIKQNPLLAEAYSNLGNVYKERGQLQEAIEHYRHALRLKPDFIDGYINLAAALVAAGDMEGAVQAYVSALQYNPDLYCVRSDLGNLLKALGRLEEAKACYLKAIETQPNFAVAWSNLGCVFNAQGEIWLAIHHFEKAVTLDPNFLDAYINLGNVLKEARIFDRAVAAYLRALSLSPNHAVVHGNLACVYYEQGLIDLAIDTYRRAIELQPHFPDAYCNLANALKEKGSVAEAEDCYNTALRLCPTHADSLNNLANIKREQGNIEEAVRLYRKALEVFPEFAAAHSNLASVLQQQGKLQEALMHYKEAIRISPTFADAYSNMGNTLKEMQDVQGALQCYTRAIQINPAFADAHSNLASIHKDSGNIPEAIASYRTALKLKPDFPDAYCNLAHCLQIVCDWTDYDERMKKLVSIVADQLEKNRLPSVHPHHSMLYPLSHGFRKAIAERHGNLCLDKINVLHKPPYEHPKDLKLSDGRLRVGYVSSDFGNHPTSHLMQSIPGMHNPDKFEVFCYALSPDDGTNFRVKVMAEANHFIDLSQIPCNGKAADRIHQDGIHILVNMNGYTKGARNELFALRPAPIQAMWLGYPGTSGALFMDYIITDQETSPAEVAEQYSEKLAYMPHTFFIGDHANMFPHLKKKAVIDFKSNGHIYDNRIVLNGIDLKAFLDSLPDVKIVKMKCPDGGDNADSSNTALNMPVIPMNTIAEAVIEMINRGQIQITINGFSISNGLATTQINNKAATGEEVPRTIIVTTRSQYGLPEDAIVYCNFNQLYKIDPSTLQMWANILKRVPNSVLWLLRFPAVGEPNIQQYAQNMGLPQNRIIFSPVAPKEEHVRRGQLADVCLDTPLCNGHTTGMDVLWAGTPMVTMPGETLASRVAASQLTCLGCLELIAKNRQEYEDIAVKLGTDLEYLKKVRGKVWKQRISSPLFNTKQYTMELERLYLQMWEHYAAGNKPDHMIKPVEVTESA

binding [3]: binds
B2: O-GlcNAc hydrolase (OGA) (enzyme, UniProt O60502 1-916)
chain: MVQKESQATLEERESELSSNPAASAGASLEPPAAPAPGEDNPAGAGGAAVAGAAGGARRFLCGVVEGFYGRPWVMEQRKELFRRLQKWELNTYLYAPKDDYKHRMFWREMYSVEEAEQLMTLISAAREYEIEFIYAISPGLDITFSNPKEVSTLKRKLDQVSQFGCRSFALLFDDIDHNMCAADKEVFSSFAHAQVSITNEIYQYLGEPETFLFCPTEYCGTFCYPNVSQSPYLRTVGEKLLPGIEVLWTGPKVVSKEIPVESIEEVSKIIKRAPVIWDNIHANDYDQKRLFLGPYKGRSTELIPRLKGVLTNPNCEFEANYVAIHTLATWYKSNMNGVRKDVVMTDSEDSTVSIQIKLENEGSDEDIETDVLYSPQMALKLALTEWLQEFGVPHQYSSRQVAHSGAKASVVDGTPLVAAPSLNATTVVTTVYQEPIMSQGAALSGEPTTLTKEEEKKQPDEEPMDMVVEKQEETDHKNDNQILSEIVEAKMAEELKPMDTDKESIAESKSPEMSMQEDCISDIAPMQTDEQTNKEQFVPGPNEKPLYTAEPVTLEDLQLLADLFYLPYEHGPKGAQMLREFQWLRANSSVVSVNCKGKDSEKIEEWRSRAAKFEEMCGLVMGMFTRLSNCANRTILYDMYSYVWDIKSIMSMVKSFVQWLGCRSHSSAQFLIGDQEPWAFRGGLAGEFQRLLPIDGANDLFFQPPPLTPTSKVYTIRPYFPKDEASVYKICREMYDDGVGLPFQSQPDLIGDKLVGGLLSLSLDYCFVLEDEDGICGYALGTVDVTPFIKKCKISWIPFMQEKYTKPNGDKELSEAEKIMLSFHEEQEVLPETFLANFPSLIKMDIHKKVTDPSVAKSMMACLLSSLKANGSRGAFCEVRPDDKRILEFYSKLGCFEIAKMEGFPKDVVILGRSL
